The other results are listed elsewhere or left out. Where only a bound is given, the exact number is not on record here.

Consider 19 molecules from PMC10163288.

First the molecules themselves.
B1: il10ra_site1_sap_27_mot_126ace9b790e630c13bc3545a3f0f279_0001_af2_000000183_0001_15_29_H_._26a4def2a2a508b1712eabbe1612c4d7_0001_0001_0000500038_0000002_0_0001 (protein)
chain: SSSSTEEVYEILRRVLELIANGNLEEAEELLQRAEELAKEEGSFVFRYSVELLQEDVERRSSSSS
B2: il10ra_site1_sap_15_mot_HHH_b2_01447_af2_000000258_0001_1_20_H_._HHH_b1_06982_af2_0001_0000100006_0000002_0_0001_af2pred_0001 (protein)
chain: SSSSSEEEVRLARRAARLAFRIPDPELSRELLRLARRLLREGDPRLLEELRELIEEIEERLSSSS
B3: il10ra_site1_normal_mot_HHH_b1_06057_000000129_0001_22_38_H_._HHH_b2_05766_0001_0000200026_0000001_0 (protein)
chain: SSSSDRTARWSVEFALRVAEELAKRDPERARELLEHLAELLKEARDEELLEEVERLLEEIGSSSS
B4: il10ra_site1_normal_mot_HHH_b1_02464_000000069_0001_1_19_H_._HHH_b2_01682_0002_0000300019_0000002_0 (protein)
chain: SSSSSSDLEELIEEVEELIERNDEEKAIEVLQRLVRLAFRLSDERADRAIIELARLIASSSSSSS
B5: il10ra_site1_sap_22_mot_HHH_b2_03328_af2_000000127_0001_1_19_H_._HHH_b1_06177_0001_0000200023_0000001_0_0001 (protein)
chain: SSSSTQELYELLRRIVELDHKGNLEEAERLLEELEELARERNDPNIRMQVEFLEEIIRRNLSSSS
B6: il10ra_site1_normal_mot_8756ee2cf497b5429c717dfc0c0bcfd6_0001_000000186_0001_1_13_H_._HHH_b2_07310_af2_0001_0000500024_0000001_0 (protein)
chain: SSSSDEELEELYELIRRAAELLHEGNPEEARKLIEEAEKLAEELGNDVAKEQLKYLERVANSSSS
B7: il10ra_site1_normal_mot_HHH_b2_07731_000000003_0001_42_56_H_._HHH_b2_03545_0001_0000200024_0000001_0_af2pred_0001 (protein)
chain: SSSSDEVEERVEELLEEAKELNEKGNPREALKLIREAHEIASKNNDPEALKLVLKLLKELFSSSS
B8: il10ra_site1_normal_mot_HHH_b2_01235_000000294_0001_1_18_H_._HHH_b1_06388_0001_0000100001_0000001_0 (protein)
chain: SSSSDEREVYELSERISELDQEGDIERAEELLEEAERIAEELGNLNMLAVLEFLREILERNSSSS
B9: il10ra_site1_normal_mot_HHH_b1_08176_000000188_0001_1_20_H_._HHH_b1_00383_af2_0001_0000200007_0000001_0 (protein)
chain: SSSSDEENQQALELSKEAFRLLLRGNPEEAEKLLEEALELAERGGNERLARVIRELLQAIKSSSS
B10: il10ra_site1_sap_12_mot_HHH_b1_08593_000000040_0001_43_57_H_._HHH_b1_08417_0001_0000300011_0000001_0_0001_af2pred_0001 (protein)
chain: SSSSDEEIEERVEELLERAKRVSEEEAQELLLEAAELAIKLGDDELLEEILRVWIEILEKSSSSS
B11: il10ra_site1_normal_mot_HHH_b1_07380_000000129_0001_1_20_H_._HHH_b1_05236_0001_0000300044_0000001_0 (protein)
chain: SSSSSEEVYKLSREALELLAEGNPEEAEEVLEQARRLAEELGDRVTLFNVRHILEDIERERSSSS
B12: il10ra_site1_normal_mot_HHH_b2_00984_000000042_0001_1_20_H_._HHH_b2_01291_0001_0000200005_0000001_0 (protein)
chain: SSSSDVEEEVEELLREAEEAFRQGDEEEAARLLLEATQLAIENNNPELLQEVWRVIRELGSSSSS
B13: il10ra_site1_normal_mot_HHH_b2_03220_af2_000000223_0001_23_40_H_._HHH_b1_06300_0001_0000100001_0000001_1 (protein)
chain: SSSSTEEVWKLIREALELLAEGNPEEARKVLEEAREIAEEENNELLEIQLEFLLKDIEELSSSSS
B14: il10ra_site1_normal_mot_HHH_b2_02053_af2_000000006_0001_3_19_H_._HHH_b2_00480_af2_0001_0000100003_0000003_0 (protein)
chain: SSSSNEAEEVYRILRKVLEARARGNPEEAEELLEEAHRIAEESGNRALLFVVRHLLEDLKASSSS
B15: il10ra_site1_sap_21_mot_HHH_b2_03117_000000257_0001_1_18_H_._HHH_b1_00484_af2_0001_0000100001_0000001_0_0001 (protein)
chain: SSSSDEEELAQLTHELVELYRNGDEERAEEVAERIAELARELGNRLAAWLAEMMLRILERGSSSS
B16: il10ra_site1_sap_24_mot_HHH_b1_05937_af2_000000262_0001_20_37_H_._HHH_b2_03447_af2_0001_0000600015_0000002_0_0001 (protein)
chain: SSSSSSDLEELLEELEELLEEGNLEEALELAKELLHLAIQNGDEEILQAVWRLIKRATSSSSSSS
B17: il10ra_site1_normal_mot_HHH_b1_07768_000000240_0001_18_35_H_._HHH_b1_07377_0001_0000600043_0000001_0 (protein)
chain: SSSSTLEWSVKFALRSARILAKEDPERAKEQLEKALKHVRQAGNEELREEIEELIEELESSSSSS
B18: il10ra_site1_normal_mot_HHH_b1_02131_000000111_0001_1_18_H_._HHH_b1_01799_0001_0000300022_0000001_0 (protein)
chain: SSSSDQEVLELAIRALRLAFRLNDPEAVQLVHELLKRYFEEGDEKYREELEELLEELEKRSSSSS
B19: il10ra_site1_sap_18_mot_HHH_b1_03121_af2_000000121_0001_21_37_H_._HHH_b2_08293_0001_0000400020_0000001_0_0001 (protein)
chain: SSSSSSEVEELIREAEEAAKEQGDRAARAVLEKLQELLENGEISEELAKIQAKLILMMLGSSSSS

The target in this experiment is il10ra, Q13651. In words: yeast display titration.
Regarding B1, the apparent Kd (as a rule, a dissociation constant that holds for the conditions of the assay) was “inactive: no binding seen”.
With B2, the “apparent Kd” value was “inactive: no binding seen”.
For B3, the “apparent Kd” value was “inactive: no binding seen”.
In the case of B4, the “apparent Kd” value was “inactive: no binding seen”.
For the molecule B5, the apparent Kd was inactive: > 1760 nM.
As for B6, the “apparent Kd” value is “inactive: no binding seen”.
Next, B7: “inactive: no binding seen”.
For B8, the “apparent Kd” value was “inactive: no binding seen”.
B9: the “apparent Kd” value was “inactive: no binding seen”.
Take B10: the “apparent Kd” value is “inactive: no binding seen”.
The value for B11 was “inactive: no binding seen”; that for B12 was “inactive: no binding seen”.
The value for B13 was “inactive: no binding seen”; that for B14 was “inactive: no binding seen”; that for B15 was inactive: > 1120 nM.
Consider B16, for which the “apparent Kd” value is “inactive: no binding seen”.
The value for B17 was “inactive: no binding seen”; that for B18 was “inactive: no binding seen”; that for B19 was “inactive: no binding seen”.
